Assay results published in paper PMC7819943, “Rice protein-binding microarrays: a tool to detect cis-acting elements near promoter regions in rice”.
The other results are listed elsewhere or left out.

What follows are sequences tested against T1, OsSMF1 (Oryza sativa, UniProt Q6ZLB0 1-436) (assay: protein-binding microarray (RPBM); PBS, 2% BSA, 51.3 ng/ul salmon testes DNA, 50 uM zinc acetate, 200 nM TF, 25 C, 1 h; high values mean tight binding). Conditions: protein: recombinant; tags: N-terminal polyhistidine and DsRed monomer fusion (pET32a); chain copies: 2; label: CyDye5-dUTP incorporated in the synthesized complementary strand; 3' TTTTT single-stranded linker to array surface; dsDNA, one strand shown.
T1 sequence: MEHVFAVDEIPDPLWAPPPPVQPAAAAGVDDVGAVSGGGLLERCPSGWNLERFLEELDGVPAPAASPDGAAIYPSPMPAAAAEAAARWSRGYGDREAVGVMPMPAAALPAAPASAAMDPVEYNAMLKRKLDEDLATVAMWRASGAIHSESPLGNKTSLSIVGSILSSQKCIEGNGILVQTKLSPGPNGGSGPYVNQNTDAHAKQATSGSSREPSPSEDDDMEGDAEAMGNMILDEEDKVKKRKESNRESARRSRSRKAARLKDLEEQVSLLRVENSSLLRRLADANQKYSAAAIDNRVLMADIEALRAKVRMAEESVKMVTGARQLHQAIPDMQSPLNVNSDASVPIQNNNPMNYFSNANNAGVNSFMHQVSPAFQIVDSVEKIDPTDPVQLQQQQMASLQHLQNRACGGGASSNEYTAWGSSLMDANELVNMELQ
Procedure, shortened: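 Per-feature fluorescence intensity (arbitrary units), read on an Axon 4000B scanner, is the binding signal. Transcription factors carrying an N-terminal polyhistidine tag and DsRed fusion were expressed in E. coli BL21-CodonPlus and purified on Ni–NTA. A custom Agilent array, made double-stranded by primer extension with Cy5-dUTP and blocked with 2% BSA, was incubated with 200 nM protein in PBS, 2% BSA, salmon testes DNA and 50 µM zinc acetate at 25 °C for 1 h and then washed.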

Sequence	binding signal
AGAGAGAGAGAGAGTGGTGACATGGTCACCTGACATGTGGCGGAGTCACCTAGTGCAG	5460 fluorescence intensity (a.u.)
TGGTTCTCACACTGCTCAAAAGCTGGCCTCTTTATTCAGTCGGAGTCACCTAGTGCAG	3220 fluorescence intensity (a.u.)
GCGCGAGTCATTAGTGCGTCACTAGCTCGAGCGCCACCTACGGAGTCACCTAGTGCAG	4140 fluorescence intensity (a.u.)
TATTAATTTCCAAATAAATTGCTATGTCAATGCCACGTCACGGAGTCACCTAGTGCAG	40900 fluorescence intensity (a.u.)
TAACATAATCCTCGAATTATTAATTAGTTAACTATAAGAGCGGAGTCACCTAGTGCAG	3440 fluorescence intensity (a.u.)
AACTATTGTCTATAAGCTCTTACACGTAGTATACTGCAGCCGGAGTCACCTAGTGCAG	3220 fluorescence intensity (a.u.)
AAAACATGCCTTACCACCTATCATTCGAGGCCACGTATGGCGGAGTCACCTAGTGCAG	7020 fluorescence intensity (a.u.)
TCACCGGTCACTGACACGTGGCCCCATAAACCGCCACCCTCGGAGTCACCTAGTGCAG	28900 fluorescence intensity (a.u.)
CCTTTTGTGACTTTTGTCCATCAATCATACAGTCACGCTCCGGAGTCACCTAGTGCAG	6680 fluorescence intensity (a.u.)
ACACTGCGTTTACGTGTTTGGCTTGGGTCTTGGGTCTTGGCGGAGTCACCTAGTGCAG	4640 fluorescence intensity (a.u.)
TGTATAGACTGACGATGGTGACGATGCGCTTGGAGGCGGCCGGAGTCACCTAGTGCAG	5340 fluorescence intensity (a.u.)
ACCAAAATTCTCATATCTCTCAACTAAACAAAACTCTTAACGGAGTCACCTAGTGCAG	3300 fluorescence intensity (a.u.)
ACGATAGATCGGGGATTTGAGATCTGAGGTGGCACGGACACGGAGTCACCTAGTGCAG	7620 fluorescence intensity (a.u.)
AGGGCACGTCATTATCGATCATCACCCGATCCATCGAGCACGGAGTCACCTAGTGCAG	4610 fluorescence intensity (a.u.)
AAAACTCCAACACGATAACGTGGCAGGCTGGCGGCGGGCCCGGAGTCACCTAGTGCAG	4250 fluorescence intensity (a.u.)
GCGGATGACGCGGCACGCTGGCTTGTGGGAGCACACAATCCGGAGTCACCTAGTGCAG	31500 fluorescence intensity (a.u.)
CAAACGGGACGAATTCCTAACCCTCGTCATCCGTCCCTTCCGGAGTCACCTAGTGCAG	4710 fluorescence intensity (a.u.)
CCGTGTGAATAATCTCGAGCTAGTACGATCCACACGATTACGGAGTCACCTAGTGCAG	3450 fluorescence intensity (a.u.)
TATAAAGAAAATATGTTGTTTTGGGTAGTGAGTAGTGACGCGGAGTCACCTAGTGCAG	3310 fluorescence intensity (a.u.)
CGTACGTAGCTAGTGCAGCACGTATTACTACTATAGTTGTCGGAGTCACCTAGTGCAG	3180 fluorescence intensity (a.u.)
GGACACCGTCTCAACATCCATCACCTCGTCGACGTCATTCCGGAGTCACCTAGTGCAG	7550 fluorescence intensity (a.u.)

Sequence	binding signal
CGCAACATCCGCGTCTGCCTCACTCCTGGCCAGCGCCTAGCGGAGTCACCTAGTGCAG	3190 fluorescence intensity (a.u.)
TTAATATACATATATATGTCACTCCTTGCTAGACACATGGCGGAGTCACCTAGTGCAG	5350 fluorescence intensity (a.u.)
CCTCTCCTCTCCATATGTTGAGTTGTTGACCTCCGGCGGCCGGAGTCACCTAGTGCAG	12800 fluorescence intensity (a.u.)
CGAAGTCGTGCTGCGCTCCGACTCAGCTGCATCGTCACTCCGGAGTCACCTAGTGCAG	5960 fluorescence intensity (a.u.)
CCTCAATTCAACCTGATGTCATACATCGAGTTGCATTGTCCGGAGTCACCTAGTGCAG	5440 fluorescence intensity (a.u.)
TCATTGCCACCTCTGTCATGTGTAAATGATGCTTCTATTTCGGAGTCACCTAGTGCAG	3300 fluorescence intensity (a.u.)
AGCTTACTATGATACCGATGAACACGTTATGACAACAAACCGGAGTCACCTAGTGCAG	3880 fluorescence intensity (a.u.)
GTAGGTTCCAGATATGTCCACGTCACCACAGAATGAAATGCGGAGTCACCTAGTGCAG	7710 fluorescence intensity (a.u.)
ATAAAGAATCTGAAGCTGAATAATTATAGCTTAGCTAACTCGGAGTCACCTAGTGCAG	28400 fluorescence intensity (a.u.)
TTTGGTCCCACTTATGGGCCCATTGTCAGTGCCAAACCTACGGAGTCACCTAGTGCAG	3310 fluorescence intensity (a.u.)
TCATCCATCAGATATCCTCCACGTGTTGTCCTCGATCCCGCGGAGTCACCTAGTGCAG	6770 fluorescence intensity (a.u.)
CGCCACGGCCCCGTCATCTCCATCCGCCTCTTCGGCACCACGGAGTCACCTAGTGCAG	7780 fluorescence intensity (a.u.)
GTGAAATCCGATTTGAATTTCGCGAAATCCAGTTTTCTTGCGGAGTCACCTAGTGCAG	3260 fluorescence intensity (a.u.)
CGGCATTGACCTGGTCTTTGTTCCACGTGGCGCTTAGGTGCGGAGTCACCTAGTGCAG	8840 fluorescence intensity (a.u.)
GACAAGCGTTGGCAGCTAGCTGCGCGCCTCCACGTTGTTCCGGAGTCACCTAGTGCAG	3660 fluorescence intensity (a.u.)
AAGTGGTGTCTGACCAGGAAATCACGAATTTGTCAACATGCGGAGTCACCTAGTGCAG	3520 fluorescence intensity (a.u.)
ATGGTCATGAGGAAGAAAAGTGGCACTTCACGGGCAACCCCGGAGTCACCTAGTGCAG	4260 fluorescence intensity (a.u.)
GAGGCGGCGGCGGAGAAGGTGAAGGAGATGAATAGGCTTCCGGAGTCACCTAGTGCAG	3170 fluorescence intensity (a.u.)
ATCATGTACATCTCATAGTCAACAATATTCATCACAATCTCGGAGTCACCTAGTGCAG	3640 fluorescence intensity (a.u.)
CTGTGTCATGGCATGGCCACCTCATCATTTGTTTTAGTCCCGGAGTCACCTAGTGCAG	8690 fluorescence intensity (a.u.)
ACGATATATTTTACTAATTAAAATGTACCGTGACTAAGCACGGAGTCACCTAGTGCAG	7460 fluorescence intensity (a.u.)

A different layout for part of the listing above.
Sequence | binding signal
CCTCAATTCAACCTGATGTCATACATCGAGTTGCATTGTCCGGAGTCACCTAGTGCAG | 5440 fluorescence intensity (a.u.)
TCATCCATCAGATATCCTCCACGTGTTGTCCTCGATCCCGCGGAGTCACCTAGTGCAG | 6770 fluorescence intensity (a.u.)
